From publication PMC9464229
Results are given in words; binding and its absence hold for the method and conditions named. In cells and extracts the contact can be indirect. Some results given as binding are weak or reduced against the parent protein; the word gives no strength. For some of these results: Tags and fused reporters may be left off the sequences shown.

Chains of the proteins cited; added tags and fusions are not shown.
UniProt P46937: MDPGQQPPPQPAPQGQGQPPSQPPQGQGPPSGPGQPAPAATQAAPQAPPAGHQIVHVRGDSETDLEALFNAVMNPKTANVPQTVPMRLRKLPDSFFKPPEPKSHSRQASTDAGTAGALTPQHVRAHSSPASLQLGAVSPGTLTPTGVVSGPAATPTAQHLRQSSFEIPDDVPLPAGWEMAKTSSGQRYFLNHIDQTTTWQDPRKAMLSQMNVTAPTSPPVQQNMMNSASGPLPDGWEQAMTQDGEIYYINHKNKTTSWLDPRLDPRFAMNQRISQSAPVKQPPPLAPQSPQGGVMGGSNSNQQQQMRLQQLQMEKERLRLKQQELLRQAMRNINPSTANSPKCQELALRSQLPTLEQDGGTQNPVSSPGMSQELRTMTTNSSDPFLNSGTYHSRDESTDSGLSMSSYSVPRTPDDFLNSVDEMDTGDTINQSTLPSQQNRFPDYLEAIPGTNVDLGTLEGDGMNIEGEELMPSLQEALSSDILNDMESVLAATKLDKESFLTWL

Legend:
Flag-YAP (wild type) = Flag-YAP (wild type) (UniProt P46937); assay: co-IP; tagged bait immunoprecipitated by Flag or Myc antibody from A549 cells infected with lentivirus or transfected with wild type or mutant, immunoblotted for the partners (Fig. 5D-F, Supplementary Fig. 6A)
[1] = biological target: T1, P130cas (endogenous) (human (endogenous in A549)), P56945; assay: co-IP; endogenous P130cas, YAP or FAK immunoprecipitated from A549 cells and immunoblotted (Fig. 5A-C); conditions: remark: other sources report otherwise
T1 chain: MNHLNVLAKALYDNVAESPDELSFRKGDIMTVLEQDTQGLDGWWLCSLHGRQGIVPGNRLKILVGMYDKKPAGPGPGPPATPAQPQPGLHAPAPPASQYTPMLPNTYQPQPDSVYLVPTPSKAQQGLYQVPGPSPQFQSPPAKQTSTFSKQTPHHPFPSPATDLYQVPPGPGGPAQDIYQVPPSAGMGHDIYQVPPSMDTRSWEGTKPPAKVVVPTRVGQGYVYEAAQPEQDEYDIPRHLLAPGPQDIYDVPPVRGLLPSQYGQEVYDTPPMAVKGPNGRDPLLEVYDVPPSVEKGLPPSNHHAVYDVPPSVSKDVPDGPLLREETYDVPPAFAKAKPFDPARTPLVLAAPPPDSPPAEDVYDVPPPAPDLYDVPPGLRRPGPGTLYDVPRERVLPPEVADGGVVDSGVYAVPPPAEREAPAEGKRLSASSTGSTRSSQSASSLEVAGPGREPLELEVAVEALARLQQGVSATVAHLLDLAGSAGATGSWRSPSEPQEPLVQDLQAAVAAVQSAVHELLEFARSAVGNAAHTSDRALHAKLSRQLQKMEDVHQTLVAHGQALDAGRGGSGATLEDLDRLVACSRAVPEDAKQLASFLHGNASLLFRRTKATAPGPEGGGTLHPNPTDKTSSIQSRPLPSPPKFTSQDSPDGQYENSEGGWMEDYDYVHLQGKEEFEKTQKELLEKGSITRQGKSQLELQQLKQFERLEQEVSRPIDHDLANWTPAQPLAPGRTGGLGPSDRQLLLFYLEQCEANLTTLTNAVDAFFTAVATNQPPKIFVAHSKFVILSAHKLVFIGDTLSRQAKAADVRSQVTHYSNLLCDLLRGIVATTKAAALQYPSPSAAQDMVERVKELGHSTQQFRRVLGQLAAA

[2] = biological target: T2, Flag-P130cas (full-length), P56945; assay: co-IP; tagged bait immunoprecipitated by Flag or Myc antibody from A549 cells infected with lentivirus or transfected with wild type or mutant, immunoblotted for the partners (Fig. 5D-F, Supplementary Fig. 6A); conditions: remark: other sources report otherwise
T2 chain: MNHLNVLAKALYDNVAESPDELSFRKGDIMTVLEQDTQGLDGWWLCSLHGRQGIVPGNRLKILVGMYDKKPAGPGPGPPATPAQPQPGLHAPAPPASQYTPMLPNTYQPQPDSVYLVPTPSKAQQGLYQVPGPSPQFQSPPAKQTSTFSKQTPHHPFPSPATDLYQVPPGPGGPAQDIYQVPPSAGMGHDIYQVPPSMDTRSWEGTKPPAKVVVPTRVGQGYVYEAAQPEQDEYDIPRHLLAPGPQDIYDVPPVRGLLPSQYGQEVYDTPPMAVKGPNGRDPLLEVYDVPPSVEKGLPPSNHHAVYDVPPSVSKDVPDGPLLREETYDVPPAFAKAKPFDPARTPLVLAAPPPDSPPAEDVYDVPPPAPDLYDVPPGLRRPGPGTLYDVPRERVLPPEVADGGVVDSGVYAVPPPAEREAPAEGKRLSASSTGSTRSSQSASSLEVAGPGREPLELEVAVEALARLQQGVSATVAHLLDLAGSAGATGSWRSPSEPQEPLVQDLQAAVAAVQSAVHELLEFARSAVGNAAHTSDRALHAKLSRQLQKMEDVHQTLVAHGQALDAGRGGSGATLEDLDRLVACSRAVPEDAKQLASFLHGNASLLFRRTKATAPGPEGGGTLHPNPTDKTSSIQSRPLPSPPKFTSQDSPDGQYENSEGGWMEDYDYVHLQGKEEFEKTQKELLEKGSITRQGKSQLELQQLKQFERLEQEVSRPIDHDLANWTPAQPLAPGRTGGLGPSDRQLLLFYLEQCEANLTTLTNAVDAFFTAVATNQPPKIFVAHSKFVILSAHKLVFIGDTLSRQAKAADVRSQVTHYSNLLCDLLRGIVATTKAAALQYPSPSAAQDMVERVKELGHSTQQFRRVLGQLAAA

Myc-FAK, Q05397 = assay: as above; conditions: remark: other sources report otherwise

B1: P130cas (endogenous) (protein, UniProt P56945 1-870)
chain: MNHLNVLAKALYDNVAESPDELSFRKGDIMTVLEQDTQGLDGWWLCSLHGRQGIVPGNRLKILVGMYDKKPAGPGPGPPATPAQPQPGLHAPAPPASQYTPMLPNTYQPQPDSVYLVPTPSKAQQGLYQVPGPSPQFQSPPAKQTSTFSKQTPHHPFPSPATDLYQVPPGPGGPAQDIYQVPPSAGMGHDIYQVPPSMDTRSWEGTKPPAKVVVPTRVGQGYVYEAAQPEQDEYDIPRHLLAPGPQDIYDVPPVRGLLPSQYGQEVYDTPPMAVKGPNGRDPLLEVYDVPPSVEKGLPPSNHHAVYDVPPSVSKDVPDGPLLREETYDVPPAFAKAKPFDPARTPLVLAAPPPDSPPAEDVYDVPPPAPDLYDVPPGLRRPGPGTLYDVPRERVLPPEVADGGVVDSGVYAVPPPAEREAPAEGKRLSASSTGSTRSSQSASSLEVAGPGREPLELEVAVEALARLQQGVSATVAHLLDLAGSAGATGSWRSPSEPQEPLVQDLQAAVAAVQSAVHELLEFARSAVGNAAHTSDRALHAKLSRQLQKMEDVHQTLVAHGQALDAGRGGSGATLEDLDRLVACSRAVPEDAKQLASFLHGNASLLFRRTKATAPGPEGGGTLHPNPTDKTSSIQSRPLPSPPKFTSQDSPDGQYENSEGGWMEDYDYVHLQGKEEFEKTQKELLEKGSITRQGKSQLELQQLKQFERLEQEVSRPIDHDLANWTPAQPLAPGRTGGLGPSDRQLLLFYLEQCEANLTTLTNAVDAFFTAVATNQPPKIFVAHSKFVILSAHKLVFIGDTLSRQAKAADVRSQVTHYSNLLCDLLRGIVATTKAAALQYPSPSAAQDMVERVKELGHSTQQFRRVLGQLAAA
binding (Flag-YAP (wild type)): binds

B2: focal adhesion kinase (FAK), endogenous, Q05397 1-1052 (protein)
chain: MAAAYLDPNLNHTPNSSTKTHLGTGMERSPGAMERVLKVFHYFESNSEPTTWASIIRHGDATDVRGIIQKIVDSHKVKHVACYGFRLSHLRSEEVHWLHVDMGVSSVREKYELAHPPEEWKYELRIRYLPKGFLNQFTEDKPTLNFFYQQVKSDYMLEIADQVDQEIALKLGCLEIRRSYWEMRGNALEKKSNYEVLEKDVGLKRFFPKSLLDSVKAKTLRKLIQQTFRQFANLNREESILKFFEILSPVYRFDKECFKCALGSSWIISVELAIGPEEGISYLTDKGCNPTHLADFTQVQTIQYSNSEDKDRKGMLQLKIAGAPEPLTVTAPSLTIAENMADLIDGYCRLVNGTSQSFIIRPQKEGERALPSIPKLANSEKQGMRTHAVSVSETDDYAEIIDEEDTYTMPSTRDYEIQRERIELGRCIGEGQFGDVHQGIYMSPENPALAVAIKTCKNCTSDSVREKFLQEALTMRQFDHPHIVKLIGVITENPVWIIMELCTLGELRSFLQVRKYSLDLASLILYAYQLSTALAYLESKRFVHRDIAARNVLVSSNDCVKLGDFGLSRYMEDSTYYKASKGKLPIKWMAPESINFRRFTSASDVWMFGVCMWEILMHGVKPFQGVKNNDVIGRIENGERLPMPPNCPPTLYSLMTKCWAYDPSRRPRFTELKAQLSTILEEEKAQQEERMRMESRRQATVSWDSGGSDEAPPKPSRPGYPSPRSSEGFYPSPQHMVQTNHYQVSGYPGSHGITAMAGSIYPGQASLLDQTDSWNHRPQEIAMWQPNVEDSTVLDLRGIGQVLPTHLMEERLIRQQQEMEEDQRWLEKEERFLKPDVRLSRGSIDREDGSLQGPIGNQHIYQPVGKPDPAAPPKKPPRPGAPGHLGSLASLSSPADSYNEGVKLQPQEISPPPTANLDRSNDKVYENVTGLVKAVIEMSSKIQPAPPEEYVPMVKEVGLALRTLLATVDETIPLLPASTHREIEMAQKLLNSDLGELINKMKLAQQYVMTSLQQEYKKQMLTAAHALAVDAKNLLDVIDQARLKMLGQTRPH
binding [1]: binds
binding [2]: binds

B3: P130cas (endogenous), P56945 1-870 (protein)
chain: MNHLNVLAKALYDNVAESPDELSFRKGDIMTVLEQDTQGLDGWWLCSLHGRQGIVPGNRLKILVGMYDKKPAGPGPGPPATPAQPQPGLHAPAPPASQYTPMLPNTYQPQPDSVYLVPTPSKAQQGLYQVPGPSPQFQSPPAKQTSTFSKQTPHHPFPSPATDLYQVPPGPGGPAQDIYQVPPSAGMGHDIYQVPPSMDTRSWEGTKPPAKVVVPTRVGQGYVYEAAQPEQDEYDIPRHLLAPGPQDIYDVPPVRGLLPSQYGQEVYDTPPMAVKGPNGRDPLLEVYDVPPSVEKGLPPSNHHAVYDVPPSVSKDVPDGPLLREETYDVPPAFAKAKPFDPARTPLVLAAPPPDSPPAEDVYDVPPPAPDLYDVPPGLRRPGPGTLYDVPRERVLPPEVADGGVVDSGVYAVPPPAEREAPAEGKRLSASSTGSTRSSQSASSLEVAGPGREPLELEVAVEALARLQQGVSATVAHLLDLAGSAGATGSWRSPSEPQEPLVQDLQAAVAAVQSAVHELLEFARSAVGNAAHTSDRALHAKLSRQLQKMEDVHQTLVAHGQALDAGRGGSGATLEDLDRLVACSRAVPEDAKQLASFLHGNASLLFRRTKATAPGPEGGGTLHPNPTDKTSSIQSRPLPSPPKFTSQDSPDGQYENSEGGWMEDYDYVHLQGKEEFEKTQKELLEKGSITRQGKSQLELQQLKQFERLEQEVSRPIDHDLANWTPAQPLAPGRTGGLGPSDRQLLLFYLEQCEANLTTLTNAVDAFFTAVATNQPPKIFVAHSKFVILSAHKLVFIGDTLSRQAKAADVRSQVTHYSNLLCDLLRGIVATTKAAALQYPSPSAAQDMVERVKELGHSTQQFRRVLGQLAAA
binding (Myc-FAK, Q05397): binds
